PubChem BioAssay AID2685 (National Center for Advancing Translational Sciences (NCATS), 2010)
The other results are listed elsewhere or left out. The main result of the screen is listed elsewhere. These columns were measured beside it and carry no call. The list favours compounds with an active or inconclusive main result. Words in brackets tell the shape of the fitted curve; partial curves, single points and poor fits give uncertain potencies.

Assay: qHTS Assay for Lipid Storage Modulators in Drosophila S3 Cells;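 as to cell number change: cells counted by Cell Tracker Red CMTPX staining in the red channel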
Conditions: BODIPY lipid droplet fluorescence, 18-24 h; for cell number change: measured here: cell count max response, cells fed with added oleic acid
How it was run: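 Laser-scanning cytometry quantifies lipid droplet accumulation (500–530 nm total intensity; droplet/cell object ratio) in oleic acid-fed (400 uM added) Drosophila S3 cells treated with a concentration series. 20 uM Triacsin C defined 100% inhibition.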

[1] = measured here: lipid fluorescence (Fed channel) AC50, cells fed with added oleic acid
[2] = measured here: cell number channel AC50, cells fed with added oleic acid

Row | SMILES | cell number change [%] | AC50 [1] | AC50 [2]
1 | COc1cc(CN2CCC(C(=O)N3CCC(C)CC3)CC2)cc(Br)c1O | 10.9 | 3.26 µM [rising, single point] | 
2 | Cc1cc(S(=O)(=O)Nc2ccc(C(=O)NCCCn3ccnc3)cc2)ccc1F | 30.1 |  | 23.1 µM [rising, single point]
3 | CC1(C)CC(=O)C(CC(=O)N2CCC(Cc3ccccc3)CC2)C(=O)C1 |  | 1.3 µM [falling, full curve] | 
4 | C=CCn1c(SCC(=O)NC2(C#N)CCCCC2)nnc1-c1ccncc1 | 25 |  | 1.3 µM [rising, full curve, poor fit]
5 | Cc1cc(C)n(-c2nc(NCC(C)O)c3c4c(sc3n2)COC(C)(C)C4)n1 (centres undefined) | -40.9 |  | 11.6 µM [falling, single point]
6 | CN(Cc1ccccc1)C(=O)CN1C(=O)NC2(CCCC2)C1=O | 7.38 |  | 
7 | CCn1ncc(N2CCOCC2)c(Cl)c1=O | 22.5 |  | 
8 | O=C(NC1CC2CCC(C1)N2C(=O)NCc1ccccc1)C1CC1 (centres undefined) | -32 |  | 16.4 µM [falling, single point]
9 | O=C1NNC(c2ccccc2)=N/C1=C\c1ccco1 | 12 |  | 
10 | Cc1cc(OCC(=O)OCC(=O)NC2CCCCC2C)ccc1Cl (centres undefined) | -4.23 | 6.51 µM [falling, single point] | 6.51 µM [falling, single point]
11 | O=C(CSc1ncnc2c1nnn2Cc1ccc(F)cc1)NC1CCCC1 | -26.3 | 0.82 µM [falling, partial curve, poor fit] | 
12 | Nc1nc(COC(=O)C2CC(=O)N(CCc3ccccc3)C2)nc(Nc2ccccc2)n1 (centres undefined) | -2.76 | 29.1 µM [rising, single point] | 
13 | COC(=O)[C@H](C)NC(=O)NCc1ccccc1F | -29.1 | 0.461 µM [falling, full curve, poor fit] | 0.092 µM [falling, full curve, poor fit]
14 | CC1Cc2ccccc2N1C(=O)COC(=O)c1n[nH]c(=O)c2ccccc12 (centres undefined) | 5.96 | 23.1 µM [rising, single point] | 
15 | COc1cc(NC(=O)c2cncc(-c3ccc(C#N)cc3)c2)cc(C(=O)Nc2cccc(C(F)(F)F)c2)c1 | -20.5 |  | 
16 | COc1ccc([N+](=O)[O-])c(S(=O)(=O)c2ccc(Cl)cc2)n1 | -61.7 |  | 11.6 µM [falling, partial curve]
17 | CCOC(=O)c1c(CC(C)C)csc1NC(=O)C(C)C | -22.6 |  | 
18 | NCC(=O)N1CCC(C(=O)N[C@@H](Cc2c[nH]c3ccccc23)C(=O)O)CC1 |  | 6.51 µM [falling, single point] | 
19 | CC1(C(=O)O)CCC(C(=O)Nc2ccccc2O)C1(C)C (centres undefined) | 25.3 | 0.116 µM [falling, full curve] | 
20 | COCCNC(=O)CCCC(=O)NCCOC | -61.8 |  | 29.1 µM [falling, partial curve, poor fit]

Row | SMILES | cell number change [%] | AC50 [1] | AC50 [2]
21 | Cc1cc(C)c2c(C)c(C(=O)NCc3ccc(S(N)(=O)=O)cc3)oc2c1 | -25 | 23.1 µM [falling, single point] | 
22 | NS(=O)(=O)c1ccc(NC(=O)CSc2ccccn2)cc1 | 18.2 | 18.4 µM [rising, single point] | 0.082 µM [rising, full curve, poor fit]
23 | CCCn1c(N)c(C(=O)CN(C)CC(=O)Nc2c(C)cc(C)cc2C)c(=O)[nH]c1=O |  | 6.51 µM [rising, partial curve] | 
24 | O=C(NC1CCCCCC1)C(=S)N1CCOCC1 | -8.31 | 29.1 µM [falling, single point] | 
25 | Cc1ccc(C)c(S(=O)(=O)N/N=C/c2cccnc2)c1 | 66.5 | 0.651 µM [rising, partial curve, poor fit] | 18.4 µM [rising, partial curve, poor fit]
26 | Cc1ccc(NS(=O)(=O)c2ccc3c(c2)NC(=O)CO3)cc1Cl | 8.26 |  | 
27 | COc1ccc(NC(=O)COc2ccccc2Cc2ccccc2)cc1S(=O)(=O)N1CCOCC1 | -50 |  | 29.1 µM [falling, single point]
28 | CCCOc1ccc(-c2nc(N3CCN(C)CC3)c3ccccc3n2)cc1 | -26.9 | 29.1 µM [falling, single point] | 
29 | O=C(CN1CCN(CCN2C(=O)c3cccc4cccc(c34)C2=O)CC1)c1ccc(F)cc1 | -30.6 |  | 11.6 µM [falling, single point]
30 | CN1CC[C@]2(CCN3CCc4c(oc5ccccc45)[C@@H]3C2)N(C)C1=O | 33.8 | 13 µM [rising, single point] | 13 µM [rising, single point]
31 | O=C(CCCCCn1c(=O)[nH]c2ccccc2c1=O)NCCCN1CCN(c2ccccc2F)CC1 |  | 6.51 µM [rising, partial curve, poor fit] | 6.51 µM [rising, single point]
32 | C/C(=N/NC(=O)c1ccncc1)C1=C(O)CC(C)(C)CC1=O | -25.9 | 5.8 µM [rising, single point] | 0.82 µM [falling, full curve, poor fit]
33 | CCn1cc(C(=O)NCC(OC)OC)c(=O)c2cc(S(=O)(=O)N3CCC(C)CC3)ccc21 | 0.763 |  | 
34 | Cc1ccc(S(=O)(=O)N(CC(=O)N2CCCCCC2)c2ccccc2F)cc1 | -6.41 |  | 
35 | COc1ccc(NS(=O)(=O)c2ccc(N3CCCC3)c(N)c2)cc1 | 6.58 |  | 
36 | CCCN(CCC)C(=O)CC(c1ccccc1)c1cc(Br)ccc1O (centres undefined) | -26.4 | 2.31 µM [rising, partial curve, poor fit] | 
37 | COc1ccc(Cc2nnc(NC(=O)CSc3ccccc3)s2)cc1OC |  |  | 0.92 µM [rising, full curve, poor fit]
38 | Cc1ccc(NC(=O)Cc2c(Cl)cccc2Cl)cc1S(=O)(=O)N(C)C | -29 | 18.4 µM [falling, single point] | 0.651 µM [falling, full curve, poor fit]
39 | COc1ccc(-c2cc(C(F)(F)F)n3ncc(C(=O)N4CCCCC4c4cccnc4)c3n2)cc1 (centres undefined) | 31.8 | 13 µM [rising, partial curve] | 1.64 µM [rising, partial curve]
40 | Cc1cc(OCC(=O)Nc2ccc(CN3CCOCC3)cc2)c2c(C)c(C)c(=O)oc2c1 | 11.6 |  | 

Individual results from the entries so far.
Entry of CN1CC[C@]2(CCN3CCc4c(oc5ccccc45)[C@@H]3C2)N(C)C1=O under AC50 [2]: 13 µM [rising, single point]
Entry of CCn1ncc(N2CCOCC2)c(Cl)c1=O under cell number change [%]: 22.5

Remaining list, next part:

Row | SMILES | cell number change [%] | AC50 [1] | AC50 [2]
41 | COc1ccc(C/C(C)=N/NC(=S)Nc2ccccc2)cc1 | -15.6 | 0.13 µM [rising, full curve, poor fit] | 0.00461 µM [rising, full curve, poor fit]
42 | CC(Sc1nnc2ccccn12)C(=O)N1CCc2ccccc2C1 (centres undefined) | 57.1 |  | 16.4 µM [rising, single point]
43 | CC(C)CN(C(=O)COC(=O)c1cncc(Br)c1)c1c(N)n(Cc2ccccc2)c(=O)[nH]c1=O | 59.9 |  | 28.2 µM [rising, single point]
44 | NS(=O)(=O)c1ccc(NS(=O)(=O)c2ccc(NC(=O)c3ccc(-c4ccccc4)cc3)cc2)cc1 | 11.7 | 29.1 µM [falling, single point] | 
45 | CCc1nnc(NC(=O)CSc2nnc(-c3cccnc3)n2C)s1 | -24.9 | 3.26 µM [falling, partial curve, poor fit] | 0.146 µM [falling, full curve]
46 | CCOC(=O)NC(=S)Nc1c(C)n(C)n(-c2ccccc2)c1=O | -28.6 | 0.501 µM [falling, full curve, poor fit] | 0.398 µM [falling, full curve, poor fit]
47 | Cc1ccc(CNC(=O)CCC(=O)c2cccs2)cc1 | -12.6 | 0.13 µM [falling, full curve, poor fit] | 
48 | CC(Sc1nncn1C)C(=O)Nc1nnc(-c2ccccc2)s1 (centres undefined) | 21.6 | 13 µM [rising, single point] | 
49 | CCCCN1C(=O)c2ccc(C(=O)NC3(C)CCS(=O)(=O)C3)cc2C1=O (centres undefined) | 36.3 |  | 0.731 µM [rising, full curve, poor fit]
50 | CCNc1ccc(C(=O)OC(C(=O)NC(N)=O)C(C)C)cc1[N+](=O)[O-] (centres undefined) | -21.3 |  | 
51 | COc1ccc2cc(C(=O)N3CCc4ccccc43)[nH]c2c1 | 38.7 | 29.1 µM [rising, single point] | 32.6 µM [rising, single point]
52 | CCOc1ccc(NC(=O)CN(C)S(=O)(=O)c2ccc(-c3ccc(=O)[nH]n3)s2)cc1 | 74.9 | 20.6 µM [rising, partial curve] | 23.1 µM [rising, partial curve]
53 | CCCCn1c(N)c(N(C)C(=O)c2cc3c(s2)CCCCC3)c(=O)[nH]c1=O | 9.63 | 2.06 µM [rising, partial curve] | 
54 | Cn1cccc1CNC(=S)Nc1ccccc1F | -12.6 |  | 
55 | O=S(=O)(c1ccc(NCCc2c[nH]c3ccccc23)nc1)N1CCOCC1 | -13 | 0.82 µM [rising, single point] | 
56 | CCCC(O)(CCC)C(=O)NN(C(=O)CCl)c1ccccc1 | -13.2 | 16.4 µM [falling, partial curve] | 
57 | O=C(CN1CCN(c2ccccn2)CC1)Nc1ccc(F)cc1 |  | 32.6 µM [rising, single point] | 4.11 µM [rising, single point]
58 | CC(OC(=O)CCSc1ccccc1)C(=O)Nc1ccc(S(N)(=O)=O)cc1 (centres undefined) | -35.6 | 23.1 µM [falling, single point] | 3.66 µM [falling, full curve]

Gathered by group, the entries above containing bromine
Row | SMILES | cell number change [%] | AC50 [1] | AC50 [2]
1 | COc1cc(CN2CCC(C(=O)N3CCC(C)CC3)CC2)cc(Br)c1O | 10.9 | 3.26 µM [rising, single point] | 
36 | CCCN(CCC)C(=O)CC(c1ccccc1)c1cc(Br)ccc1O (centres undefined) | -26.4 | 2.31 µM [rising, partial curve, poor fit] | 
43 | CC(C)CN(C(=O)COC(=O)c1cncc(Br)c1)c1c(N)n(Cc2ccccc2)c(=O)[nH]c1=O | 59.9 |  | 28.2 µM [rising, single point]
